Primary screen of a compound library

Values are the deposited “Percent Effect”, in %.
The record does not define 0% and 100%; most values in the screen are far below 50% and negative numbers occur (in some assays of this library far below -100).
Compounds were drawn at random from those tested, without regard to their results.

A: 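Assay on Mycobacterium tuberculosis, filed only as a heat shock assay from Cornell; the read-out is not stated. The concentration is filed as 10 mM, unlikely as a test dose, so the dose is not known. Higher reads as stronger inhibition (inferred: compounds with an IC50 in retests scored well above the rest). About 69,000 compounds were tested under these conditions; 1.4% (about 930) showed 50% or more at least once.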
B: 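Whole-cell assay for inhibitors of Mycobacterium tuberculosis growth, labelled Cornell in the record; the read-out is not stated. The concentration is filed as 10 mM, unlikely as a test dose, so the dose is not known. Higher means stronger inhibition (inferred from two other growth screens of the library). Size under these conditions: about 53,000 compounds, about 900 of them at 50% or above in at least one test.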

structure: Cc1ccc(OC2(C(=O)O)CCN(C/C=C/c3ccco3)CC2)cc1
A: 10.76%

structure: CN(CCNC(=O)c1ccnc(-n2ccnc2)c1)C1CC1
A: 0.3217%
B: 7.668%

structure: Cc1ccc(N2CCCC(c3[nH]ncc3Cc3ccccc3)C2)nn1 (stereo unspecified)
A: 8.561%
B: 1.547%

structure: O=C(c1ncoc1-c1ccco1)N1CCCN(c2nccs2)CC1
A: -1.375%

structure: CCN(CC)C(=O)Nc1ccc(N2CCSCC2)cc1C
A: 4.911%
B: 107.3%

structure: COc1ccc(-c2nc(CN3CCCS3(=O)=O)co2)cc1
A: -25%
B: -13.32%

structure: [H][C@]12CC[C@]([H])(CN(C(=O)c3ccccn3)C1)N(C(=O)Cc1cccs1)C2
A: -1.635%
B: 8.259%

structure: Cc1cccc(NCC(=O)NC2(C#N)CCCC2)c1C(=O)N1CCCC1
A: 0.336%
B: -56.89%

structure: CN(C)C(=O)CN1CCC2(CC1)COC2
A: 11.12%

structure: Cc1ccc2cc(CN(C)Cc3ccccn3)c(=O)[nH]c2c1
A: -6.108%
B: -16.81%

structure: CC(C)CN(Cc1ccccn1)Cc1ccccc1C(=O)O
A: -35.86%

structure: Cc1nc(-c2ccccc2)c(C(=O)N2CCC3(CC(=O)NC3=O)C2)s1 (stereo unspecified)
A: 8.803%
B: -2.716%

structure: O=C(c1coc(COc2ccccc2F)n1)N1CCC[C@H]1CO
A: 7.737%
B: 13.43%

structure: COCC(=O)N1CCC2(CCCN(Cc3cc(OC)ccc3F)C2)C1 (stereo unspecified)
A: 9.26%
B: 6.891%

structure: O=C(O)C(F)(F)F.[H][C@]12CCN(S(=O)(=O)c3cccs3)C[C@@]1([H])OCCN(C(C)C)C2
A: 40.12%
B: -11.79%

structure: CC(C)Oc1ccccc1CNC(=O)N(C)C(C)CS(C)(=O)=O (stereo unspecified)
A: 6.864%

structure: O=C(NS(=O)(=O)c1cnn(-c2ccccc2F)c1)c1ccoc1
A: 1.229%
B: -22.75%

structure: O=C(O)C(F)(F)F.O=C1NCC[C@]12CN(CC1CCOCC1)C[C@H]2c1ccccc1
A: -6.347%
B: 13.75%

structure: O=C(O)C(F)(F)F.[H][C@@]12COC[C@]1(C(=O)NC1CC(F)(F)C1)CN(Cc1scnc1C)C2
A: -1.611%
B: -10.29%

structure: [H][C@@]12CCN(Cc3scnc3C)C[C@@]1([H])O[C@@H](c1ccncn1)C2
A: 18%
B: 20.13%

structure: [H][C@@]12CN(Cc3ccc(F)c(F)c3)C[C@]1([H])OCC(=O)N2
A: 2.036%
B: 4.426%

structure: COc1ccc(NC(=O)N2CCCC2c2ccco2)c(OC)c1 (stereo unspecified)
A: 74.57%
B: -12.13%

structure: COc1cc(CNCCn2ccnc2)cc2c1OCO2.Cl
A: -11.34%

structure: Cc1ccccc1-n1ccc2nc(N3CCCC3)ncc2c1=O
A: 2.129%
B: -24.48%

structure: O=C(CCc1nc2ccccc2[nH]1)NC1CCOC2(CCOCC2)C1 (stereo unspecified)
A: -25.69%

structure: Cc1cnc2c(S(=O)(=O)NCC3CCS(=O)(=O)C3)cccc2c1 (stereo unspecified)
A: -7.351%
B: -14.09%

structure: CCN(Cc1cnn(CC)c1)C(=O)CN1C(=O)CCc2ccccc21
A: -3.29%

structure: O=C(O)Cn1ccc(=O)c2cc(F)ccc21
A: 12.91%
B: 4.345%

structure: CC(NC(=O)CSCC#N)c1ccc(Cl)cc1 (stereo unspecified)
A: -10.42%
B: -4.941%

structure: Cc1noc(C)c1CN1CCC2(CC1)NC(=O)CC2c1ccncc1 (stereo unspecified)
A: -25.27%
B: -3.922%

structure: Cn1cncc1-c1nnc([C@H]2CCN(CC3CCCCC3)C2)o1
A: -21.78%
B: 2.804%

structure: Cc1[nH]c2ccc(Cl)cc2c1CCNc1ncnc2c1CCNC2
A: 96.99%
B: -21.57%

structure: O=C(NCCCO)Nc1cccc(I)c1
A: -8.208%
B: 18.41%

Some entries from above, unchanged:

{"structure": "Cc1ccccc1-n1ccc2nc(N3CCCC3)ncc2c1=O", "A": 2.129, "B": -24.48}
{"structure": "O=C(c1coc(COc2ccccc2F)n1)N1CCC[C@H]1CO", "A": 7.737, "B": 13.43}
{"structure": "O=C(NS(=O)(=O)c1cnn(-c2ccccc2F)c1)c1ccoc1", "A": 1.229, "B": -22.75}
{"structure": "Cc1ccc(OC2(C(=O)O)CCN(C/C=C/c3ccco3)CC2)cc1", "A": 10.76}

Data taken from ChEMBL document CHEMBL3988442, “University of Dundee, Small-Polar-MMV Screening Library” (2021).